Measurements reported in PMC7819943, “Rice protein-binding microarrays: a tool to detect cis-acting elements near promoter regions in rice”.
This is one part of the list.

Chains of the proteins cited; added tags and fusions are not shown.
UniProt Q0JBA9, entry or part of it: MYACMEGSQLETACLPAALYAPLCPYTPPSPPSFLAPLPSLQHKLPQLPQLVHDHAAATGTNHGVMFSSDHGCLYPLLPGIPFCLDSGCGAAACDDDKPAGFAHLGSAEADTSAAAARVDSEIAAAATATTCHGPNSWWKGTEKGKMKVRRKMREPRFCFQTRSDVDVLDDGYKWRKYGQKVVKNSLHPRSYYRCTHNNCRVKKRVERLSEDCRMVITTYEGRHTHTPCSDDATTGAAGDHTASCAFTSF

target: OsWRKY34 (Oryza sativa, UniProt Q0JBA9 1-250); assay: protein-binding microarray (RPBM); PBS, 2% BSA, 51.3 ng/ul salmon testes DNA, 50 uM zinc acetate, 200 nM TF, 25 C, 1 h; high values mean tight binding; conditions: protein: recombinant; tags: N-terminal polyhistidine and DsRed monomer fusion (pET32a); label: CyDye5-dUTP incorporated in the synthesized complementary strand; 3' TTTTT single-stranded linker to array surface; dsDNA, one strand shown
In short: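 The binding signal is fluorescence intensity per feature, in arbitrary units, read on an Axon 4000B scanner. Polyhistidine- and DsRed-tagged transcription factors (N-terminal fusions) from E. coli BL21-CodonPlus were purified on Ni–NTA and applied at 200 nM for 1 h at 25 °C to a double-stranded, BSA-blocked custom Agilent array in buffer with 50 µM zinc acetate.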

Sequence	binding signal
CTAATACGTGGGTCTCACTATTGTCTTCTTGTTTGACTGACGGAGTCACCTAGTGCAG	10700 fluorescence intensity (a.u.)
CTCCAGCAGTAGTTCTTCTCGATCGACGAATCTATACACACGGAGTCACCTAGTGCAG	8160 fluorescence intensity (a.u.)
TACGCGTCCCAACCTGCTCCACTCCCTCGGCGCTGACCACCGGAGTCACCTAGTGCAG	11500 fluorescence intensity (a.u.)
ACCGCCGTGCTTTTCACCAGCTCACCGTGTTGCTCACCGACGGAGTCACCTAGTGCAG	10000 fluorescence intensity (a.u.)
GTTATAATCGATACGTTTGTTTTTTCTATCTACTTCTGGGCGGAGTCACCTAGTGCAG	8540 fluorescence intensity (a.u.)
ACTCTCCTCTCTCGTTTTCCGTGCGCACGCTTTTCAAACTCGGAGTCACCTAGTGCAG	8040 fluorescence intensity (a.u.)
GCTCCAGCGACTCCGTTCCGCTTCTGCTCCCCACATTTAACGGAGTCACCTAGTGCAG	9230 fluorescence intensity (a.u.)
AATCATTAACACATTATCAGTGTACTGCCTGCTGCCACTCCGGAGTCACCTAGTGCAG	9820 fluorescence intensity (a.u.)
TTGTTGTAGTAGCTGCTGTGCTGTATGGTGGTAGCCAGTGCGGAGTCACCTAGTGCAG	9070 fluorescence intensity (a.u.)
GCTGCCTTCGCATCCCACGCTGTCGCCGCTGCAGCCGCCTCGGAGTCACCTAGTGCAG	9740 fluorescence intensity (a.u.)
GTTTGGATCGTTCTGTCTGTTATGCCCGTGATCTTTTCAGCGGAGTCACCTAGTGCAG	8360 fluorescence intensity (a.u.)
GCCGTCCGCCGGCCGCCGTCTCCAGCCACAGATCGCCCCTCGGAGTCACCTAGTGCAG	8580 fluorescence intensity (a.u.)
CCTCGTGCCATCTCGCGGCTGAACAGGGGAGGGGATCCTGCGGAGTCACCTAGTGCAG	8810 fluorescence intensity (a.u.)
GGTTTCGAGTAGGTATAGGCCTTGTGCAGCATTTGGTCAACGGAGTCACCTAGTGCAG	8570 fluorescence intensity (a.u.)
GCGTCCCTACCTCGCACTCGCGCAGTCTCTCCAAACCCTTCGGAGTCACCTAGTGCAG	9080 fluorescence intensity (a.u.)
TTTTAAGCATCCAAACTGCGGTCATATGGCCATTTTTGATCGGAGTCACCTAGTGCAG	8910 fluorescence intensity (a.u.)
ACTACTTATTGTTATTGGCTTGTTACATCATTCGGTGCTCCGGAGTCACCTAGTGCAG	9730 fluorescence intensity (a.u.)
CGGTGGCCTCACCCTGCTGTTTCACTTTCACCTCGCCGTCCGGAGTCACCTAGTGCAG	8880 fluorescence intensity (a.u.)
TCATCAAAAGTTGGTTTAGGTCCCATTCGTTTATCCAACACGGAGTCACCTAGTGCAG	9220 fluorescence intensity (a.u.)
CGCGCGGACACGCCCCGTTCTCTCCAATCCAACCACTTAACGGAGTCACCTAGTGCAG	8050 fluorescence intensity (a.u.)
TTGTGTCTGTTTTCGTGTGCTTTATCCAAATAGTCACTCACGGAGTCACCTAGTGCAG	9560 fluorescence intensity (a.u.)

Some of the entries so far, bar-delimited:
Sequence | binding signal
CTAATACGTGGGTCTCACTATTGTCTTCTTGTTTGACTGACGGAGTCACCTAGTGCAG | 10700 fluorescence intensity (a.u.)
GTTTGGATCGTTCTGTCTGTTATGCCCGTGATCTTTTCAGCGGAGTCACCTAGTGCAG | 8360 fluorescence intensity (a.u.)
GCCGTCCGCCGGCCGCCGTCTCCAGCCACAGATCGCCCCTCGGAGTCACCTAGTGCAG | 8580 fluorescence intensity (a.u.)

Going on with the list.

Sequence	binding signal
GTTTTGACCCCGCGGTTTTGACTCCGGTTTTATCCCACGTCGGAGTCACCTAGTGCAG	10900 fluorescence intensity (a.u.)
GATCCCTTGTTTGATATGTGTACTCCAGTGTTAACTTACCCGGAGTCACCTAGTGCAG	9060 fluorescence intensity (a.u.)
GGGATATCTCGCCCCTTTTTCTAGTATTTTTTTTTCTTTTCGGAGTCACCTAGTGCAG	11700 fluorescence intensity (a.u.)
ATTTTCACCCTCTGGGTTGCTTATTGATCATACGATCCTTCGGAGTCACCTAGTGCAG	9580 fluorescence intensity (a.u.)
AGCACCACTCATCCAGCTTCCAGCCGCCTTCGCGCACCACCGGAGTCACCTAGTGCAG	10900 fluorescence intensity (a.u.)
ATAATCTTTGTCTTTTGTTTGCTTGATATCGTACTACGTGCGGAGTCACCTAGTGCAG	8440 fluorescence intensity (a.u.)
GTTTTGCGTATCTTCTTAATCTCTTCTTGGCTTCTCTCAACGGAGTCACCTAGTGCAG	11600 fluorescence intensity (a.u.)
GTGGTTATTCAATTTGTTGCTTGTTTTTGTTTCAAGTTGGCGGAGTCACCTAGTGCAG	10700 fluorescence intensity (a.u.)
ATTCCTTTCTGTAATCTAATCCGGACGCTGTTGTTGTGACCGGAGTCACCTAGTGCAG	10300 fluorescence intensity (a.u.)
TTTTTTAATTCCGCATTTCATTCTTTTCTAAATTATATTCCGGAGTCACCTAGTGCAG	11900 fluorescence intensity (a.u.)
TCAGGTTGACTTTGGTCAAAATTAAGCGGATTTAAGTTTGCGGAGTCACCTAGTGCAG	9600 fluorescence intensity (a.u.)
TCCCCGTTACCGAGCGCCGCCGCCTCCGCCTCCACCTCTACGGAGTCACCTAGTGCAG	10100 fluorescence intensity (a.u.)
ATACTGTTTCTTGTCGATCTATTGTCAATTTGTCATAGTACGGAGTCACCTAGTGCAG	8510 fluorescence intensity (a.u.)
ATGTTTGCGCTGTAAGATATTCCTTCTGTTTTAAAATATACGGAGTCACCTAGTGCAG	9910 fluorescence intensity (a.u.)
ATCGTATTTCTGTCTAGTCCAGCGTCGCCTTAATTGGCCTCGGAGTCACCTAGTGCAG	8640 fluorescence intensity (a.u.)
TCTCCTCCATCTCCTCGCTTCGTCCCGTTCACACCACCACCGGAGTCACCTAGTGCAG	8970 fluorescence intensity (a.u.)
CCCATCGCCGTCCCCATCATCGCCGAGGTCGACCTCTACACGGAGTCACCTAGTGCAG	9940 fluorescence intensity (a.u.)
TCGGTCAAACGTCCTCCGGCAGACGTTGACCACATTTCTGCGGAGTCACCTAGTGCAG	14000 fluorescence intensity (a.u.)
AGCACTAGGAGTCGGTGTAAGTGCATCTCTCTCCTCTCTCCGGAGTCACCTAGTGCAG	9690 fluorescence intensity (a.u.)
TCCTCCTGCTCCACCGCACTCTGCAGTCCGCACCCGCGCGCGGAGTCACCTAGTGCAG	10700 fluorescence intensity (a.u.)
TGTACATGTCAGCTCATCTCACTCTCGACTACTTGGCTTCCGGAGTCACCTAGTGCAG	8770 fluorescence intensity (a.u.)
